Experiment [1] deals with PAT9-YFP^C (Arabidopsis thaliana) (UniProt Q8VYS8). Nature of the experiment: split reporter; BiFC with split YFP at the C-termini, co-transformed Arabidopsis protoplasts, 23 °C overnight in the dark; FM4-64 as plasma membrane stain.
The target of experiment [2] is T1, P2K1-YFP^N (Arabidopsis thaliana) (UniProt Q9LSR8).
T1 sequence: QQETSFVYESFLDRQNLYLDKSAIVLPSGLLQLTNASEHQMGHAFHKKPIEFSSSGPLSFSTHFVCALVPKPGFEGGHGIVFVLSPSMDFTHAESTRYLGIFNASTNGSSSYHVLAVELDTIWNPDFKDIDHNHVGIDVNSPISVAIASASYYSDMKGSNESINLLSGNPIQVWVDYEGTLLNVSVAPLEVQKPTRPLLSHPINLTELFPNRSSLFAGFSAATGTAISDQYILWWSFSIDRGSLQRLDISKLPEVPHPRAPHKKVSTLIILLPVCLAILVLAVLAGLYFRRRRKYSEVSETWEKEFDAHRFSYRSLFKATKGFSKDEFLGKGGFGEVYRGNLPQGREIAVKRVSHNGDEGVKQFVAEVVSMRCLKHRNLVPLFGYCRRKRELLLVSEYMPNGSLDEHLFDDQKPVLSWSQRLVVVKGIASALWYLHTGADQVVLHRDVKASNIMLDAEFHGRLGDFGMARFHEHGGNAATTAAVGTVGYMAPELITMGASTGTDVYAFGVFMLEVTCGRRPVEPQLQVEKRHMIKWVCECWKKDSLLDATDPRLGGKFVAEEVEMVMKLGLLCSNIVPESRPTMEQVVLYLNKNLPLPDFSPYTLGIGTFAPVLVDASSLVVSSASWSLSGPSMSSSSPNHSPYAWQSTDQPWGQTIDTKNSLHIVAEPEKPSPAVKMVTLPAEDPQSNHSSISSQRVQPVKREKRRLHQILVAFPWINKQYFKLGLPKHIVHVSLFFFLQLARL
The description is as above.

By UniProt entry, the sequences of proteins in these tests, tags left out. Where a name states a change or a piece, a line headed by the entry shows the natural chain unless it says otherwise.
UniProt Q8VYS8: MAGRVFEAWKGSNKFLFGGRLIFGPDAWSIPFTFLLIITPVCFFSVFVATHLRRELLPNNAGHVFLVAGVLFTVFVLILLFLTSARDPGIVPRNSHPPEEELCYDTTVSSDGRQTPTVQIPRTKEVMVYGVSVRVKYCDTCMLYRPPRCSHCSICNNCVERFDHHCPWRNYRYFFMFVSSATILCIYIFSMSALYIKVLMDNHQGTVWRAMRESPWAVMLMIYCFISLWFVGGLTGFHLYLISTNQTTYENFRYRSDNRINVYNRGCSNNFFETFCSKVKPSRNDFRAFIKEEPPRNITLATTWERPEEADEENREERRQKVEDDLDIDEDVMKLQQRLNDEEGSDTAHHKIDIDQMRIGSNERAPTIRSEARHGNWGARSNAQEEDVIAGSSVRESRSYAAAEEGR
UniProt Q9M306: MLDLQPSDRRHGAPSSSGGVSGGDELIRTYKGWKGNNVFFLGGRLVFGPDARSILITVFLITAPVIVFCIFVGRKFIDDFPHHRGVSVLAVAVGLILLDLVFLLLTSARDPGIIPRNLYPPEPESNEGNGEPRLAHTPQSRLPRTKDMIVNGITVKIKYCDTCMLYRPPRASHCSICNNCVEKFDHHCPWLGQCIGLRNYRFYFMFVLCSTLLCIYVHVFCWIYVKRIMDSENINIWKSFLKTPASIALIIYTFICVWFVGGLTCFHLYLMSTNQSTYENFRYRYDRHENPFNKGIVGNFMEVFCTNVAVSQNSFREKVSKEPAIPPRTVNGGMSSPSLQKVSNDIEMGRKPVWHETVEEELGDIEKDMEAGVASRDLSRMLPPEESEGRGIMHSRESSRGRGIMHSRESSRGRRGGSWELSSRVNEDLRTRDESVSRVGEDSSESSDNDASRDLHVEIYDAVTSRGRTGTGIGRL

For experiment [3], the target named is T2, GST-P2K1-KD (P2K1 kinase domain, C-terminal cytoplasmic domain) (Arabidopsis thaliana) (UniProt Q9LSR8).
T2 sequence: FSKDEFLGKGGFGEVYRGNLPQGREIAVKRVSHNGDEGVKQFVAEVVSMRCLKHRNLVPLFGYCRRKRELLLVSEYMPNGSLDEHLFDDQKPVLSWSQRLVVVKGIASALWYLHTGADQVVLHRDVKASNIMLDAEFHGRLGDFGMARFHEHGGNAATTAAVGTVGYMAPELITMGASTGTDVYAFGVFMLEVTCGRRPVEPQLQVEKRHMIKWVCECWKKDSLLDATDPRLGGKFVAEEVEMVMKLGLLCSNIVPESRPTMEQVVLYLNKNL
Nature of the experiment: pull-down; GST-His pull-down: 5 μg GST and His recombinant proteins with 25 μl Glutathione Resin beads, 25 mM Tris-HCl pH 7.5, 100 mM NaCl, 1 mM DTT, 2 h at 4 °C; eluted with GSH; blots with anti-His and anti-GST; both purified.

Experiment [4] addresses T3, GST-P2K1-KD-1 (kinase inactive form of the P2K1 kinase domain) (Arabidopsis thaliana) (UniProt Q9LSR8).
T3 sequence: T2 sequence with D229N
The description is as above.

The target of experiment [5] is T4, P2K1-HA (Arabidopsis thaliana) (UniProt Q9LSR8).
T4 sequence: T1 sequence
Nature of the experiment: co-IP; constructs transiently co-expressed in Arabidopsis wild-type protoplasts; extract in 50 mM Tris pH 7.5, 150 mM NaCl, 0.5% Triton-X 100; anti-Myc or anti-HA agarose; blots with anti-HA-HRP and anti-Myc-HRP.

Experiment [6] addresses T5, P2K1 (DORN1, LecRK-I.9; extracellular ATP receptor), fused to the N-terminal fragment of firefly luciferase (Arabidopsis thaliana) (UniProt Q9LSR8).
T5 sequence: T1 sequence
Nature of the experiment: split reporter; split-luciferase complementation imaging in N. benthamiana leaves, Agrobacterium infiltration, 48 h, 1 mM D-luciferin; mock or 500 uM ATPγS added, panels at 15 min and 1 h; empty vectors as controls.

Substitutions are numbered along the chain they refer to. These are yes or no findings as the source states them, for the method shown. Binding can be weak; no strength is given. For some assays here: Sequences can lack the tags named with a protein. For some assays here: In cells and extracts the contact can be indirect.

Data on 9 substances can be found in publication PMC8115640.

As to “PAT5-YFP^C (from UniProt Q9M306) (enzyme)”, the binding result in experiment [1] and in experiment [2] was “binds” each time.

On to “His-PAT5-CRD (DHHC-Cysteine rich domain of PAT5) (from UniProt Q9M306) (domain or fragment)”, for which the binding result in experiment [3] and in experiment [4] was “binds” each time.

Turning to “PAT9-YFP^C (from UniProt Q8VYS8) (enzyme)”, in experiment [2], the binding entry is on record as “binds”.

As to “His-PAT9-CRD (DHHC-Cysteine rich domain of PAT9) (from UniProt Q8VYS8) (domain or fragment)”, the binding entry in experiment [3] and in experiment [4] was “binds” in each case.

Take “His-PAT5-C (C-terminal cytoplasmic domain of PAT5) (from UniProt Q9M306) (domain or fragment)”: the binding entry in experiment [3] and in experiment [4] was “binds” each time.

As for PAT9-Myc (from UniProt Q8VYS8) (enzyme), in experiment [5], the binding result is “binds”.

Regarding “PAT5 (protein S-acyltransferase 5), fused to the C-terminal fragment of firefly luciferase (from UniProt Q9M306) (enzyme)”, the binding entry in experiment [6] is reported as “binds”.

Regarding “His-PAT9-C (C-terminal cytoplasmic domain of PAT9) (from UniProt Q8VYS8) (domain or fragment)”, the binding entry in experiment [3] and in experiment [4] was “binds” throughout.

As for PAT5-Myc (from UniProt Q9M306) (enzyme), the binding result in experiment [5] is listed as “binds”.
